Source: PMC8934624
Results are given in words; binding and its absence hold for the method and conditions named. Binding seen in cells or lysates may run through a third protein. Some results given as binding are weak or reduced against the parent protein; the word gives no strength. Each block holds one molecule with its values, some of them ahead of it.

Sequences of proteins named here, by UniProt entry; tags and fusion partners are left off. A change or cut given only in a name is not applied to a line headed by its entry. A line that says so, or that is headed by a name, gives the form on record, which may keep a tag or linker.
FLAG-tagged wild-type hnRNP D40 (full-length) (Q14103, form named): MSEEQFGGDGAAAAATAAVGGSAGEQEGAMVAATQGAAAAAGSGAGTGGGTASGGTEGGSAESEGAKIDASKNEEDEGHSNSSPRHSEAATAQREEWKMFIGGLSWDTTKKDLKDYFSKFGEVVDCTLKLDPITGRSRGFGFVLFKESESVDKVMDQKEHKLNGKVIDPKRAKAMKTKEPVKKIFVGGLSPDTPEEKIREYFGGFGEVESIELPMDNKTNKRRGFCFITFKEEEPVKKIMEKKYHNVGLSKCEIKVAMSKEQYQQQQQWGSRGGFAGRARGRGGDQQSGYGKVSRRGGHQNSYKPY
UniProt P11940: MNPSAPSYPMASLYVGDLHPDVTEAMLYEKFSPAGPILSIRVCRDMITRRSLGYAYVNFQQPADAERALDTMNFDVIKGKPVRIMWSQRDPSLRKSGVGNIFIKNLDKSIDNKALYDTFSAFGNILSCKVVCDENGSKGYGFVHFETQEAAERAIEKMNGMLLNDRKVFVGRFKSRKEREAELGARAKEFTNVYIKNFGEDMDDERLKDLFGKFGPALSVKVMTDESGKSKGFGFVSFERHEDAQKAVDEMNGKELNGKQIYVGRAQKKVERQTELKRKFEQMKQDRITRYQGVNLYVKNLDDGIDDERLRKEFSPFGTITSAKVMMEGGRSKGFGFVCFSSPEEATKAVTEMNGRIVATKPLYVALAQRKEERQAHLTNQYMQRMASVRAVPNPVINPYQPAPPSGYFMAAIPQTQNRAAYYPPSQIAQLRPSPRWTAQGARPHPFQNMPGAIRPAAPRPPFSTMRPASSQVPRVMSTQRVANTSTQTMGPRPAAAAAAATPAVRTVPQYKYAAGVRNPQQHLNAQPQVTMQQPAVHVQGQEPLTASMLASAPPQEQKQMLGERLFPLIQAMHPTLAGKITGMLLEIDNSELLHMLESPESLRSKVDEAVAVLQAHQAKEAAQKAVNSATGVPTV
UniProt P08621: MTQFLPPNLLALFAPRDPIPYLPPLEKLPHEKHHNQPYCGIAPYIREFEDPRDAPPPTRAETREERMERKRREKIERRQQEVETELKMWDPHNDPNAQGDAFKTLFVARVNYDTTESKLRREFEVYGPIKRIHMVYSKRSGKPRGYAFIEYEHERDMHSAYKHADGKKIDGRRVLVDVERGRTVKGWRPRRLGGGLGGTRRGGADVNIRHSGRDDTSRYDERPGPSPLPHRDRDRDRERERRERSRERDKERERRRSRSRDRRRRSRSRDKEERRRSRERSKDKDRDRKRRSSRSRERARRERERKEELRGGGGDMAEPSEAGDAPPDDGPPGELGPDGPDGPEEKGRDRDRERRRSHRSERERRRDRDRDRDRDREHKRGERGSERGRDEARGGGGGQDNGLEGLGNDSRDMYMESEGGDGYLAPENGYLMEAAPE

Target: FLAG-tagged wild-type hnRNP D40 (full-length) (UniProt Q14103)
Assay: co-IP; lysates of transfected HeLa cells (25 mM Tris HCl pH 7.4, 150 mM NaCl, 1% NP-40, 1 mM EDTA, 1 mM DTT, RNase inhibitor, 5% glycerol); anti-flag antibody (M2) or IgG on Dynabeads protein G, 4°C overnight; six washes; western blot of endogenous partners

binding: binds
Molecule: cytosolic poly(A)-binding protein-1 (PABP-C1) (from UniProt P11940 1-636)

binding: binds
Molecule: U1 snRNP component U1-70K (from UniProt P08621 1-437)

binding: binds
B1: U2 auxiliary factor U2AF35 (protein, UniProt Q01081 1-240)
chain: MAEYLASIFGTEKDKVNCSFYFKIGACRHGDRCSRLHNKPTFSQTIALLNIYRNPQNSSQSADGLRCAVSDVEMQEHYDEFFEEVFTEMEEKYGEVEEMNVCDNLGDHLVGNVYVKFRREEDAEKAVIDLNNRWFNGQPIHAELSPVTDFREACCRQYEMGECTRGGFCNFMHLKPISRELRRELYGRRRKKHRSRSRSRERRSRSRDRGRGGGGGGGGGGGGRERDRRRSRDRERSGRF
